Laboratory results: article doi:10.1101/2021.12.21.473709
These are yes or no findings as the source states them, for the method shown. In cells and extracts the contact can be indirect. A result given as binding can be weak or reduced; the word gives no strength. Where a sequence is shown, tags or fusion partners need not be part of it.

The chains behind the UniProt entries cited, without tags or fusion partners. Where a name states a change or a piece, a line headed by the entry shows the natural chain unless it says otherwise.
UniProt Q8L4M1: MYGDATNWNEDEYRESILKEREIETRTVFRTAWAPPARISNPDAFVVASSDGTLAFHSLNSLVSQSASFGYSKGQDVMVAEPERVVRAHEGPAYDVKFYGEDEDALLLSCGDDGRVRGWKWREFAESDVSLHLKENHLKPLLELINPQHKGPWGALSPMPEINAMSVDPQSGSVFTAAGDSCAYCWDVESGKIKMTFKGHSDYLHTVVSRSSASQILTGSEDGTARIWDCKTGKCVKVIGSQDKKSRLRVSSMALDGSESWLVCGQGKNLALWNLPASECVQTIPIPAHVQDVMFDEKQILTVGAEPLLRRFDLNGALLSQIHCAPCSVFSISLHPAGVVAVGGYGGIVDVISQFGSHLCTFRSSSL

Columns and labels:
Test in all cases: split reporter
[1] = target: T1, ABI5, split YFP fusion (Arabidopsis) (UniProt Q9SJN0)
T1 sequence: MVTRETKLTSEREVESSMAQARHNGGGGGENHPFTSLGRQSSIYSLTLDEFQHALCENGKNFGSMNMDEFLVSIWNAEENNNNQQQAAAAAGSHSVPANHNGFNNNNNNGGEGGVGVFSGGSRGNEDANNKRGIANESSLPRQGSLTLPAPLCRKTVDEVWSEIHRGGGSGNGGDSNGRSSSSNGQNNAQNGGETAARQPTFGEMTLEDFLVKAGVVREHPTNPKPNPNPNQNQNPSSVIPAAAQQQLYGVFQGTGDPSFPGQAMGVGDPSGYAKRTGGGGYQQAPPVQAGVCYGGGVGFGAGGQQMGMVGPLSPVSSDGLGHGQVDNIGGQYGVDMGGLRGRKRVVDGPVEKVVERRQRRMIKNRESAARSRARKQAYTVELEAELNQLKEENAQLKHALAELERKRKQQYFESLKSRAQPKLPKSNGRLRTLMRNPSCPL

[2] = target: T2, AFP1, split YFP fusion (Arabidopsis) (UniProt Q9LQ98)
T2 sequence: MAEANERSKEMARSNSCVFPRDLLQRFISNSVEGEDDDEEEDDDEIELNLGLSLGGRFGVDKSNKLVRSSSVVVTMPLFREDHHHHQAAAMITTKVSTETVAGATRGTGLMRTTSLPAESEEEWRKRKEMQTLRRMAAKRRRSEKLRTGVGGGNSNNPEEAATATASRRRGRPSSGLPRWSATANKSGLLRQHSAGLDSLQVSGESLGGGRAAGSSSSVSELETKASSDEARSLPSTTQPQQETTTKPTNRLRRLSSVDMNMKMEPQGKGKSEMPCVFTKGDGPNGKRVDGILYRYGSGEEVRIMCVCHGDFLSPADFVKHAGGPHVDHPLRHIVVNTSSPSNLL

[3] = target: T3, AFP2, split YFP fusion (Arabidopsis) (UniProt Q9LMX5)
T3 sequence: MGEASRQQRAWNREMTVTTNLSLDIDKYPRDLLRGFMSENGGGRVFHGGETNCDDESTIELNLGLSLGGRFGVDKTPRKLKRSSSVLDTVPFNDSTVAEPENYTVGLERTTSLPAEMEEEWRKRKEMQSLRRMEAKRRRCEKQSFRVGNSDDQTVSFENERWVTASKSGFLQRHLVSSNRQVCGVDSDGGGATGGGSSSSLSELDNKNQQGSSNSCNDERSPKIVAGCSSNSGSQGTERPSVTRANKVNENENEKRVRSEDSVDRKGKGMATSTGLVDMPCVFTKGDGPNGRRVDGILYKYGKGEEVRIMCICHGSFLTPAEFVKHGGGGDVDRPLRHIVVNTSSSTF

Measured: binding

DWA1, split YFP fusion (from UniProt Q8L4M1)
binds weakly: all assays above
